Results are given in words; binding and its absence hold for the method and conditions named. Some results given as binding are weak or reduced against the parent protein; the word gives no strength.
Target: Pae RNAP core enzyme (Pseudomonas aeruginosa) (UniProt O52760+Q51561+Q9HWC9+B7V5M8)
Assay: SEC; Pae RNAP core enzyme and Pae σ70 incubated 1:3 for 1 h at 4°C, then HiLoad 16/600 Superdex 200 in 10 mM HEPES pH 7.5, 50 mM KCl; both purified

Chains of the proteins cited; added tags and fusions are not shown. Lines headed by an entry give the natural chain unless they say otherwise; changes in a name come on top.
UniProt O52760: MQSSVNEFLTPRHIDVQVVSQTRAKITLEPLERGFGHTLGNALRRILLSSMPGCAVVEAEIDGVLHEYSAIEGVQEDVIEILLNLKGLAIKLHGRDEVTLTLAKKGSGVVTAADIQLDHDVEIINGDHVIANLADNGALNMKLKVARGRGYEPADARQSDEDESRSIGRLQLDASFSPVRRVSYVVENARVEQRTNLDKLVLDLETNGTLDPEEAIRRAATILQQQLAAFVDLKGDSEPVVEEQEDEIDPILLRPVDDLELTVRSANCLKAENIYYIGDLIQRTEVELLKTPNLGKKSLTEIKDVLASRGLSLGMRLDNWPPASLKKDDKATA
UniProt Q51561: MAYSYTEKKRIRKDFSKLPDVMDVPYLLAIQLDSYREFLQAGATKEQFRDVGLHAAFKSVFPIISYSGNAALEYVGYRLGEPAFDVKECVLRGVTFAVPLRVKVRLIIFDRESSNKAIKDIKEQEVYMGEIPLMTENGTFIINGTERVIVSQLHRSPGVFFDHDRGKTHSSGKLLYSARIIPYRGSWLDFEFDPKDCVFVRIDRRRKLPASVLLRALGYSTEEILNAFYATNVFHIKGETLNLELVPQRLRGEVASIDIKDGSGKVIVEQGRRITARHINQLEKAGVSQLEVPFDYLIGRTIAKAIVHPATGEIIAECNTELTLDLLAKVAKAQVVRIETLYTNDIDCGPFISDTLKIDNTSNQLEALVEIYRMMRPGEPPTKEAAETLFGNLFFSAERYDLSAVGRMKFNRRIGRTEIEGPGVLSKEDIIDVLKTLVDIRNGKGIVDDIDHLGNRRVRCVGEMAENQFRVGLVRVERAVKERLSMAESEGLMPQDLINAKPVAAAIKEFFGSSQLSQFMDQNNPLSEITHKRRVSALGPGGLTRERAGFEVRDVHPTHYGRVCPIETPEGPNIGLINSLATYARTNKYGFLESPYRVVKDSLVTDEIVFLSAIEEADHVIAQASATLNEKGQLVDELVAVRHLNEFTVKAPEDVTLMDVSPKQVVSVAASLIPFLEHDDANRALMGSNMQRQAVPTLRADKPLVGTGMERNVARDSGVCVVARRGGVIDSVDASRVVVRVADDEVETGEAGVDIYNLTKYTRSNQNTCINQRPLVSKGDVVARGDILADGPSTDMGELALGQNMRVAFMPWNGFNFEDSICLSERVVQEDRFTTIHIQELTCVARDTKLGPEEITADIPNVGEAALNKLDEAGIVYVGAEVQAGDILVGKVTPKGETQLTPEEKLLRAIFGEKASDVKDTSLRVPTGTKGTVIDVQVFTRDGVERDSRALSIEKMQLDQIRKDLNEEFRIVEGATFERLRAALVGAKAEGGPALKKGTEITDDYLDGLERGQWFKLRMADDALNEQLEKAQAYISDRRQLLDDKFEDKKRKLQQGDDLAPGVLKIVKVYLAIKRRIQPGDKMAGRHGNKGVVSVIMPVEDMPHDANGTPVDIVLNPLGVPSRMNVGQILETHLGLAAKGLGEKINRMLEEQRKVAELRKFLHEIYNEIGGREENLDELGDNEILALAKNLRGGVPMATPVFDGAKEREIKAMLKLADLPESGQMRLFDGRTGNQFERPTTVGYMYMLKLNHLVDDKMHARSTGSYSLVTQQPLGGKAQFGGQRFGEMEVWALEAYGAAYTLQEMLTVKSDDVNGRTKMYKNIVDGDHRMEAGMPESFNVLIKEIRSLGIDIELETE
UniProt Q9HWC9: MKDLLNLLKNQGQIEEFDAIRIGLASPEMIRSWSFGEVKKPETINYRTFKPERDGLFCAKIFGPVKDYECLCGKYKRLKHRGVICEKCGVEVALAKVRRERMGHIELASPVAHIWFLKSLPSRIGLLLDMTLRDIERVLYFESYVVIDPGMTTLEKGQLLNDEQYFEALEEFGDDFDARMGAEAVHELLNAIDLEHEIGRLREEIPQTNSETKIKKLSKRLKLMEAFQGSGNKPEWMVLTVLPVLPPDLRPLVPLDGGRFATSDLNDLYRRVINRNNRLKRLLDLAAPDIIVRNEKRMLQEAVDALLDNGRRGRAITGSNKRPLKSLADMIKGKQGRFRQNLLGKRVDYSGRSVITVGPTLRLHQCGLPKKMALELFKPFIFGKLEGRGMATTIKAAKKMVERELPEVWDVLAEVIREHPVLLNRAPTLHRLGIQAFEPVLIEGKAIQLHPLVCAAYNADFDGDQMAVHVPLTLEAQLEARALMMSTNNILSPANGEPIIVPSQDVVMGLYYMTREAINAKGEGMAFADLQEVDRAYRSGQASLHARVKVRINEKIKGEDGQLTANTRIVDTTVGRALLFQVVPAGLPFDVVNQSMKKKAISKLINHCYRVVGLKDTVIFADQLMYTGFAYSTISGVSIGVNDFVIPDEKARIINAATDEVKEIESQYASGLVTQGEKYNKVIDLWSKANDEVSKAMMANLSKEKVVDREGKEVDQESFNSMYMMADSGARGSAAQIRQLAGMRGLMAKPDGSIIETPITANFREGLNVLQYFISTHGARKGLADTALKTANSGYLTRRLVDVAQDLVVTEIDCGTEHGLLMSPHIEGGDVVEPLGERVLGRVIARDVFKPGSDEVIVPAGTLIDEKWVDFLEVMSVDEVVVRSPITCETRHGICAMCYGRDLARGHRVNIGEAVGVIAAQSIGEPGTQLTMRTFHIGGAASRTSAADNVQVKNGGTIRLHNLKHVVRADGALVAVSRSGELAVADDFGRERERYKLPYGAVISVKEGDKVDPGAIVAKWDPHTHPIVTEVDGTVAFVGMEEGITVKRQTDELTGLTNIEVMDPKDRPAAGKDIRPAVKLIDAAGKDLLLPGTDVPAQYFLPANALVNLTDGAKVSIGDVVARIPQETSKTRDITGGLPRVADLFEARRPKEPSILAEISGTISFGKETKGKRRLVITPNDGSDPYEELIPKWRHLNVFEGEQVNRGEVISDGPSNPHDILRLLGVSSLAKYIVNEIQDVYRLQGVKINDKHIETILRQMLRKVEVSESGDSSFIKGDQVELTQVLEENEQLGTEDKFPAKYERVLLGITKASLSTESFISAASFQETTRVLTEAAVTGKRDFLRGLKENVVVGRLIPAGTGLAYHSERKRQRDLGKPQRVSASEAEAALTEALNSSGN
UniProt B7V5M8: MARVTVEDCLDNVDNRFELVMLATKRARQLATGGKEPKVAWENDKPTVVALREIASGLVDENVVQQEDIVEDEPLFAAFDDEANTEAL
UniProt P26480: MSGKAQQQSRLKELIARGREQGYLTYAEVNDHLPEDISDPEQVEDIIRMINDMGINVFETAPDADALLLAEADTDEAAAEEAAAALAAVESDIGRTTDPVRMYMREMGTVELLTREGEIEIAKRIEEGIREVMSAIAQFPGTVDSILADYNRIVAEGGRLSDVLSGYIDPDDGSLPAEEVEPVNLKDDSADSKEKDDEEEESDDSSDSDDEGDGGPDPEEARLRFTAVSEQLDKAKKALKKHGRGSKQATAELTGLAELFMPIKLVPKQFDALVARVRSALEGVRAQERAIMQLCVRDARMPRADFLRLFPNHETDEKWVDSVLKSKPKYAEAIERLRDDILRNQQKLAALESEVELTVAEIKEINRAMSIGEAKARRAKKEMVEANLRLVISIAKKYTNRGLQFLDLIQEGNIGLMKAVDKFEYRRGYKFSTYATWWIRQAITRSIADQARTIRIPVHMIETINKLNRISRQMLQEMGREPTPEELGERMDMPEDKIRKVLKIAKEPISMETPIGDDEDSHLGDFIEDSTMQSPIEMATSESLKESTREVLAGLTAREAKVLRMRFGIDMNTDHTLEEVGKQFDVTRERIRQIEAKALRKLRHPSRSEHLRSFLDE

binding: binds
Substance: Pae σ^70 (from UniProt P26480 1-617)

From article PMC9371919
